The target of this assay is IRS1D (MYC-tagged IRS1 devoid of both AA 607-623 and AA 936-962) (UniProt P35568). The experiment in a line: co-transfection in HEK293 cells with HA-tagged p85, co-IP.

Protein sequences, listed by entry. Tags and fused reporters are not part of them. Lines headed by an entry give the natural chain unless they say otherwise; changes in a name come on top. Chains listed by the source or under a name are the forms on record and can include a tag or linker.
IRS1D (MYC-tagged IRS1 devoid of both AA 607-623 and AA 936-962) (P35568, form named): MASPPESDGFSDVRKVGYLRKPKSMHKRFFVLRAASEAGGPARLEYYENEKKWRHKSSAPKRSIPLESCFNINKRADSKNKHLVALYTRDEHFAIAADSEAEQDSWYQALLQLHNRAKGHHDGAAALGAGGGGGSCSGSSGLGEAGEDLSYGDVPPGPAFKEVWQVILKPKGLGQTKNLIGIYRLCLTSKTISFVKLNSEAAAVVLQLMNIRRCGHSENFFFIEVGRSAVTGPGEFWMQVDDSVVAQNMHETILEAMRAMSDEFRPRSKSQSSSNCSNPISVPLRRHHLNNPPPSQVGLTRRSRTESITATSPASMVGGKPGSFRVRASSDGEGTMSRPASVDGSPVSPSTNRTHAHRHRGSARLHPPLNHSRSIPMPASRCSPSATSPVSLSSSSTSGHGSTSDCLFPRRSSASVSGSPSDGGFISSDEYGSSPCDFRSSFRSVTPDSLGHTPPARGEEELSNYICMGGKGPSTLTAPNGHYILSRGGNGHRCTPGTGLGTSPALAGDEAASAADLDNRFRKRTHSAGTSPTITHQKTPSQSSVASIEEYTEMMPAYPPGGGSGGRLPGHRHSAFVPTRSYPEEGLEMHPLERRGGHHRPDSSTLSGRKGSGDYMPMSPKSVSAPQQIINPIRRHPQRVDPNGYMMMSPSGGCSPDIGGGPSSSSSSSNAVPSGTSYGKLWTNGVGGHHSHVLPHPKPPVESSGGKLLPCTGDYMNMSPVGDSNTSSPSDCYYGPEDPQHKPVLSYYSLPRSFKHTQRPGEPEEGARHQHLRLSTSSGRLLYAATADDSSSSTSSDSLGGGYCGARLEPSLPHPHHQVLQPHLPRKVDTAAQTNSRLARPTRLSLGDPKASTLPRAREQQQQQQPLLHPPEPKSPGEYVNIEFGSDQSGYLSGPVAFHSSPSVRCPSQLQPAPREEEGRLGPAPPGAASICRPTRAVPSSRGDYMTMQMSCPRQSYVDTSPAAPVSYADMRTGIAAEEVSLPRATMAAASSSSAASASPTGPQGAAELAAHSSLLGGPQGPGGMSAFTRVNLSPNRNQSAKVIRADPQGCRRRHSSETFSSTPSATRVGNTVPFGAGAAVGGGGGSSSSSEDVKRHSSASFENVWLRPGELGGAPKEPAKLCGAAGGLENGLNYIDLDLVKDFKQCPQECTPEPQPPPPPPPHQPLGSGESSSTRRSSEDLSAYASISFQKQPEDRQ
UniProt P27986: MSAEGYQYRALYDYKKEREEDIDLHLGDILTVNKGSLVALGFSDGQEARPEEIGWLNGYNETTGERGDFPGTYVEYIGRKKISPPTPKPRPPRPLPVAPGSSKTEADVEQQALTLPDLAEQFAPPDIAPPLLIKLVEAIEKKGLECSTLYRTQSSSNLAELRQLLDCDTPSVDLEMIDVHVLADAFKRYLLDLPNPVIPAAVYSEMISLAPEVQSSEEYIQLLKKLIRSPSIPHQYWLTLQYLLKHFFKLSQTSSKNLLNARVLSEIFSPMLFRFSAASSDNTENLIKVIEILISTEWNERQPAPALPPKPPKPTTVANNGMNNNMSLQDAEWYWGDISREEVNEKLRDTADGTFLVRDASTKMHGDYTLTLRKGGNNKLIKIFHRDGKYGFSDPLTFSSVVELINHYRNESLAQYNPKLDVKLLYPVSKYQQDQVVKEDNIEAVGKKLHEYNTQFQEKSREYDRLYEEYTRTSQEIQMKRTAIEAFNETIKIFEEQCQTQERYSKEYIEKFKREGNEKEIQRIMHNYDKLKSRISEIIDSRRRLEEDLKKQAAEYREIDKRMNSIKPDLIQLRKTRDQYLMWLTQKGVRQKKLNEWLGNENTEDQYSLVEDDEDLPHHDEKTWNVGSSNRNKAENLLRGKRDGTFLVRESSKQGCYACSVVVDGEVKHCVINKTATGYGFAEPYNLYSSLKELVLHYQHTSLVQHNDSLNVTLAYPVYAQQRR

Results are given in words; binding and its absence hold for the method and conditions named. Binding seen in cells or lysates may run through a third protein. Some binding calls cover weakened binding; strength is not graded here.

Turning to “HA-tagged p85 (from UniProt P27986 1-724)”, the binding result is on record as “binds”.

The values above are taken from US20140005119A1, “COMPOSITIONS AND METHODS FOR INHIBITING THE ACTIVITY OF P110a MUTANT PROTEINS” (Case Western Reserve University, priority 2012, published 2014).
